PubChem BioAssay AID1259305 – Sanger Institute, 2017

Screen: 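Find kinase knock-downs that boost drug killing of colorectal cancer cells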 (follow-up of hits)
Cells: human DIFI colorectal cancer cells
Knock-down reagent: single siRNA against human genes
Conditions: BYL719 1 µM, cetuximab 5 µg/ml or trametinib 10 nM, or DMSO vehicle, added one day after transfection; exposure time not given
Read-out: 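Survival relative to a non-targeting siRNA control pool averaged across replicates, with synergy scores per drug weighing the combination against siRNA only and drug only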
Reading the numbers: synergy score with BYL719 and synergy score with Cetuximab and synergy score with Trametinib: higher = stronger combined killing than expected; viability, knock-down alone: higher = more cells surviving knock-down
Active means: 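An siRNA counts as synergistic (synthetic lethal) when its synergy score tops 0.10 for at least one of the three drugs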
The whole screen tested 160 reagents; this is a random part of them. Of all reagents, 96 (60%) are marked active. 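Each call covers one siRNA sequence in one cell line only; gene-level confirmation needs agreement across siRNAs and lines.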 A number with no mark means an inactive call. Reagents against one gene are numbered here. Viability is capped at 1. Not all columns of the deposit are shown. The record does not give: the amount of reagent, the time to read-out.

gene | reagent no. | synergy score with BYL719 | synergy score with Cetuximab | synergy score with Trametinib | viability, knock-down alone
RPS6KA4 (ribosomal protein S6 kinase A4) | 1 | 0.0086 (active) | 0.0843 | 0.157 | 0.858
RPS6KA4 (ribosomal protein S6 kinase A4) | 2 | 0.128 (active) | 0.0427 | 0.155 | 0.823
RPS6KA4 (ribosomal protein S6 kinase A4) | 3 | -0.0432 | 0.0542 | 0.0425 | 0.843
RPS6KA4 (ribosomal protein S6 kinase A4) | 4 | 0.249 (active) | 0.0841 | 0.186 | 1
GTF2H1 (general transcription factor IIH subunit 1) | 1 | 0.122 (active) | 0.113 | 0.0334 | 0.773
GTF2H1 (general transcription factor IIH subunit 1) | 2 | -0.0205 | 0.0649 | -0.0997 | 1
GTF2H1 (general transcription factor IIH subunit 1) | 3 | -0.113 | -0.0134 | -0.186 | 1
GTF2H1 (general transcription factor IIH subunit 1) | 4 | 0.0761 | -0.155 | -0.0246 | 0.5
IRAK1 (interleukin 1 receptor associated kinase 1) | 1 | 0.0508 (active) | -0.0168 | 0.297 | 0.816
IRAK1 (interleukin 1 receptor associated kinase 1) | 2 | 0.0108 | 0.0171 | -0.127 | 1
IRAK1 (interleukin 1 receptor associated kinase 1) | 3 | 0.125 (active) | 0.154 | 0.165 | 0.899
IRAK1 (interleukin 1 receptor associated kinase 1) | 4 | 0.328 (active) | 0.0898 | 0.0399 | 1
CRIM1 (cysteine rich transmembrane BMP regulator 1) | 1 | -0.00451 | -0.05 | 0.0358 | 0.735
CRIM1 (cysteine rich transmembrane BMP regulator 1) | 2 | 0.036 (active) | 0.202 | 0.276 | 0.781
CRIM1 (cysteine rich transmembrane BMP regulator 1) | 3 | 0.25 (active) | 0.0513 | 0.113 | 0.911
CRIM1 (cysteine rich transmembrane BMP regulator 1) | 4 | 0.0919 (active) | 0.129 | 0.3 | 0.549
GRK5 (G protein-coupled receptor kinase 5) | 1 | -0.215 | 0.0223 | 0.0846 | 1
GRK5 (G protein-coupled receptor kinase 5) | 2 | -0.208 | -0.058 | -0.13 | 1
GRK5 (G protein-coupled receptor kinase 5) | 3 | 0.0815 (active) | 0.128 | 0.233 | 0.637
GRK5 (G protein-coupled receptor kinase 5) | 4 | -0.0298 (active) | 0.128 | -0.0254 | 1
PFKFB3 (6-phosphofructo-2-kinase/fructose-2,6-biphosphatase 3) | 1 | 0.0435 (active) | 0.156 | 0.01 | 1
PFKFB3 (6-phosphofructo-2-kinase/fructose-2,6-biphosphatase 3) | 2 | 0.134 (active) | 0.243 | 0.26 | 1
PFKFB3 (6-phosphofructo-2-kinase/fructose-2,6-biphosphatase 3) | 3 | -0.0792 (active) | 0.116 | -0.0858 | 1
PFKFB3 (6-phosphofructo-2-kinase/fructose-2,6-biphosphatase 3) | 4 | 0.0178 (active) | 0.209 | 0.101 | 0.927
EPHA6 (EPH receptor A6) | 1 | 0.053 (active) | 0.00376 | 0.107 | 0.638
EPHA6 (EPH receptor A6) | 2 | 0.143 (active) | 0.146 | 0.135 | 0.799
EPHA6 (EPH receptor A6) | 3 | 0.0807 | -0.031 | 0.0923 | 0.691
EPHA6 (EPH receptor A6) | 4 | 0.0845 | 0.0126 | -0.0149 | 1
BMPR2 (bone morphogenetic protein receptor type 2) | 1 | -0.0458 (active) | 0.117 | -0.167 | 1
BMPR2 (bone morphogenetic protein receptor type 2) | 2 | 0.0724 (active) | 0.142 | 0.208 | 0.785
BMPR2 (bone morphogenetic protein receptor type 2) | 3 | -0.0366 | -0.00158 | -0.00237 | 0.977
BMPR2 (bone morphogenetic protein receptor type 2) | 4 | -0.199 | 0.096 | -0.114 | 1
NLK (nemo like kinase) | 1 | 0.121 (active) | 0.0226 | 0.0178 | 0.939
NLK (nemo like kinase) | 2 | 0.105 (active) | 0.235 | 0.312 | 0.849
NLK (nemo like kinase) | 3 | 0.153 (active) | 0.0682 | 0.2 | 0.997
NLK (nemo like kinase) | 4 | -0.228 | -0.00778 | -0.243 | 1
PAK1 (p21 (RAC1) activated kinase 1) | 1 | 0.209 (active) | 0.176 | 0.156 | 0.952
PAK1 (p21 (RAC1) activated kinase 1) | 2 | 0.0696 | -0.0422 | 0.0866 | 0.627
PAK1 (p21 (RAC1) activated kinase 1) | 3 | 0.0832 (active) | 0.0718 | 0.166 | 0.81
PAK1 (p21 (RAC1) activated kinase 1) | 4 | -0.0385 (active) | 0.118 | 0.0997 | 1
CSNK2A2 (casein kinase 2 alpha 2) | 1 | -0.188 | 0.0489 | 0.0173 | 1
CSNK2A2 (casein kinase 2 alpha 2) | 2 | -0.0415 | 0.0299 | 0.0489 | 0.499
CSNK2A2 (casein kinase 2 alpha 2) | 3 | -0.0443 | -0.00802 | -0.0141 | 0.71
CSNK2A2 (casein kinase 2 alpha 2) | 4 | 0.0526 (active) | 0.07 | 0.13 | 0.384
HUNK (hormonally up-regulated Neu-associated kinase) | 1 | 0.163 (active) | 0.133 | 0.0286 | 0.69
HUNK (hormonally up-regulated Neu-associated kinase) | 2 | 0.0223 | 0.0224 | 0.0829 | 0.339
HUNK (hormonally up-regulated Neu-associated kinase) | 3 | 0.0467 (active) | 0.00319 | 0.159 | 0.895
HUNK (hormonally up-regulated Neu-associated kinase) | 4 | 0.114 (active) | 0.0912 | 0.313 | 0.852
